{
  "source": "PubChem BioAssay AID602160",
  "about": "(Broad Institute, 2011)",
  "target": "Plasmodium falciparum Hsp90 (expressed in yeast GR reporter strain)",
  "test": "decrease of GR reporter signal in PfHsp90 yeast, dose response, S. cerevisiae, beta-gal luminescence, dry powder samples (AID 602160)",
  "details": "at 26 µM (top of the series)",
  "note": "This is one part of the list. The source made no clear call on entries shown without one.",
  "data": [
    {"smiles": "CCOc1cc(S(=O)(=O)NC2CCCCCC2)ccc1F", "values": [
      {"measurement": "activity change, negative = inhibition", "value": -41, "unit": "%"}
    ]}
  ]
}
